Screening data, single-dose tests

By UniProt entry, the sequences of proteins in these tests, tags left out. Residues count along the entry.
UniProt I6X8D2, whole entry: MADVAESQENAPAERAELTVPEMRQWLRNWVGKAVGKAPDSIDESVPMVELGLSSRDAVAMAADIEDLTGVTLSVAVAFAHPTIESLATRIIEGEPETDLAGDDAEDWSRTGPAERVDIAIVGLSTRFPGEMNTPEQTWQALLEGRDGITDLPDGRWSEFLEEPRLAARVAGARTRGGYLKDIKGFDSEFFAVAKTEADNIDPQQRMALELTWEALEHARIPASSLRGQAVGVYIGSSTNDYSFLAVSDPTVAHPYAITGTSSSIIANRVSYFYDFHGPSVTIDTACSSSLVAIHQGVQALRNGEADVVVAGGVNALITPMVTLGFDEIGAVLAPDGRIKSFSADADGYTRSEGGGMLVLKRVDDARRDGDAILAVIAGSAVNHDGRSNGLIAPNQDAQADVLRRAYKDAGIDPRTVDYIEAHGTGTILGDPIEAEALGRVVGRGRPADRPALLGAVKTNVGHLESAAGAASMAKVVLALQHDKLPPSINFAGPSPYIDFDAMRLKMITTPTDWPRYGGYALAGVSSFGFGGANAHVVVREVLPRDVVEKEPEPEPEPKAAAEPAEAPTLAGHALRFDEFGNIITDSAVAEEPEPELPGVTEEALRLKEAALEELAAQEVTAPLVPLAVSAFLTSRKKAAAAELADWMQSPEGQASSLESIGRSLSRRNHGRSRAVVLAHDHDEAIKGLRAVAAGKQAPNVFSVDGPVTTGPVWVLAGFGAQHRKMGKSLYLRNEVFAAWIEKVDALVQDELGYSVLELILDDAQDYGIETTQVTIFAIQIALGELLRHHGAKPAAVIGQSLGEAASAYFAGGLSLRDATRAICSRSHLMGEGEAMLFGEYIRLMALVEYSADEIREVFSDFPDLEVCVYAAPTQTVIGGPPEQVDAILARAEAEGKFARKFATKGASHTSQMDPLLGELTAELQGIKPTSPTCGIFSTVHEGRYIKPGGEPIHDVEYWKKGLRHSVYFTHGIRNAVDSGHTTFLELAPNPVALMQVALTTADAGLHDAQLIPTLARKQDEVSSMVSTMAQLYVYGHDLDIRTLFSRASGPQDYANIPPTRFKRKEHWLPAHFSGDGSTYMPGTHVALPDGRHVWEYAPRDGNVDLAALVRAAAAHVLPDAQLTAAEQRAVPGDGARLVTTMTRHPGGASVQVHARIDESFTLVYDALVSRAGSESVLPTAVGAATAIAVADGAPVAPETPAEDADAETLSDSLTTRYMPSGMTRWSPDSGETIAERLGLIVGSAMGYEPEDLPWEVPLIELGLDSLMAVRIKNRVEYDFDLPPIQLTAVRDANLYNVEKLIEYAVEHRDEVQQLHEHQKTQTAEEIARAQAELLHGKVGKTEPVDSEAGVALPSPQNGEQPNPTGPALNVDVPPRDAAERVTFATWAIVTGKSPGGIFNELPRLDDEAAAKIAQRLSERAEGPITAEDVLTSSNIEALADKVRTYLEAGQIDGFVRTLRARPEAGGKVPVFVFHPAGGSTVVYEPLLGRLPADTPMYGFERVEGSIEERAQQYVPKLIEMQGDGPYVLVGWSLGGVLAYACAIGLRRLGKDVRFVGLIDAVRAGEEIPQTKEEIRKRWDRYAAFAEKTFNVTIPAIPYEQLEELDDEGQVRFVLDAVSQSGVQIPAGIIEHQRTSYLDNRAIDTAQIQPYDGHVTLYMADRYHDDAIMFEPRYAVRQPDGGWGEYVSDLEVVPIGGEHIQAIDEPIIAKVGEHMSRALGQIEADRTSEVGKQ
UniProt P9WNZ1, whole entry: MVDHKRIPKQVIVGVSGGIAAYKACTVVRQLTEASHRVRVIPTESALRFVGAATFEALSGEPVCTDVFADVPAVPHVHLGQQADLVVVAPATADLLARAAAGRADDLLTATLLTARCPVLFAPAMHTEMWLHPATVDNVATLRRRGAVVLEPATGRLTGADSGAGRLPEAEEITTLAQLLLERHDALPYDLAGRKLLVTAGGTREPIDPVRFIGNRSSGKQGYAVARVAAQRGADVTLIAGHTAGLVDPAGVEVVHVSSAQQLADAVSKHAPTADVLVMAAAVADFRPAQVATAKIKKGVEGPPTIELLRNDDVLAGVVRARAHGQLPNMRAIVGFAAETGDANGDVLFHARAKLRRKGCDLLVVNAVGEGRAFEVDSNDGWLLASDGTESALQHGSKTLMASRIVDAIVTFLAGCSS
UniProt P9WFT3, whole entry: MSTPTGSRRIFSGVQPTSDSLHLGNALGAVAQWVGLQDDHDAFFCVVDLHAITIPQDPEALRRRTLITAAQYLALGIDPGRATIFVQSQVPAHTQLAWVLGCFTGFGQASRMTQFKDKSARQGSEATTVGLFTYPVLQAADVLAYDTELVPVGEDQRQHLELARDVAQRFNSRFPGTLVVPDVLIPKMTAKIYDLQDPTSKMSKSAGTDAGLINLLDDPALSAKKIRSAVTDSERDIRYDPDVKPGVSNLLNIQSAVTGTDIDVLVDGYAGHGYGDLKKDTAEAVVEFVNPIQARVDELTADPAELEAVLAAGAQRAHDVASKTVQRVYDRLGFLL
UniProt A4I591, 1-473: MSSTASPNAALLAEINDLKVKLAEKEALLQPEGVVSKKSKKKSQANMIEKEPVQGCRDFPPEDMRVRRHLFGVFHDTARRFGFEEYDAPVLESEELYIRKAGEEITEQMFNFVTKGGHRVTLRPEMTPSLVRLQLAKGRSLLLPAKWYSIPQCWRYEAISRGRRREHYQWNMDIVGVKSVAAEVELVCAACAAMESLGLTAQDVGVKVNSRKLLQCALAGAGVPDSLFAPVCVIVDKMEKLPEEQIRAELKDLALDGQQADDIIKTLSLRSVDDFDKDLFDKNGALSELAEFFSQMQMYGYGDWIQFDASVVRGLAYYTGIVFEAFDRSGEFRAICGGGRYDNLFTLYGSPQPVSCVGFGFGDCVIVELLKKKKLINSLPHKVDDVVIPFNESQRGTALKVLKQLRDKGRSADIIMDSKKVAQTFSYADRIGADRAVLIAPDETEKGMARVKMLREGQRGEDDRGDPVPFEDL
UniProt Q4DA54, 1-478: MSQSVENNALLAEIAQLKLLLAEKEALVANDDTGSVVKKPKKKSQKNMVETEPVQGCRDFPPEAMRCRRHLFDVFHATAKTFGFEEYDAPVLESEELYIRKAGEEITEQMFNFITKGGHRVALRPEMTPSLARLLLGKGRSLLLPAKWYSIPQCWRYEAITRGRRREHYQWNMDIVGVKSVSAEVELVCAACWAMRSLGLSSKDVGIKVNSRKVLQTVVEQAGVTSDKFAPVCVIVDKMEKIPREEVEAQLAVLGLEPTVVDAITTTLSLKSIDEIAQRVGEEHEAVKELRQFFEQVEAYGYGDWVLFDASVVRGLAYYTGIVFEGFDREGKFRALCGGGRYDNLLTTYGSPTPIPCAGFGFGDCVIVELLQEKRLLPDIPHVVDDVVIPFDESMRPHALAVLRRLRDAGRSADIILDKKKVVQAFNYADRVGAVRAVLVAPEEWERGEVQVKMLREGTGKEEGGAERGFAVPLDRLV

Pks13 thioesterase: 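Polyketide synthase Pks13, Mycobacterium tuberculosis (UniProt I6X8D2). Enzyme assay of the thioesterase domain of polyketide synthase 13; the read-out is not stated. Compounds at 30 µM. The record gives no direction; the compounds picked for IC50 retests had high values, so higher reads as stronger inhibition. Of about 67,000 compounds tested this way, about 300 (0.46%) reached 50% or more in at least one test.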
Toxoplasma: 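Assay of Toxoplasma gondii numbers, read through their beta-galactosidase reporter with a colour substrate. Tested at 10 µM. Higher reads as fewer parasites (inferred from which compounds were picked for retests). Size under these conditions: about 67,000 compounds, about 260 of them at 50% or above in at least one test.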
CoaBC: 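Enzyme assay of CoaBC with a phosphate dye (Biomol Green) read at 650 nm. Target: Coenzyme A biosynthesis protein CoaBC, Mycobacterium tuberculosis (UniProt P9WNZ1). Concentration: 30 µM. Higher reads as stronger inhibition, judged from the few compounds that gave an IC50. Most strong results did not repeat in a second test. Of about 67,000 compounds tested this way, about 40 (0.06%) reached 50% or more in at least one test.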
MtTrpRS: 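Tryptophan-tRNA ligase, Mycobacterium tuberculosis (UniProt P9WFT3). Enzyme assay of tryptophanyl-tRNA synthetase; the read-out is not stated. Concentration: 10 µM. Direction is not recorded; retested compounds ran higher, which suggests that high means inhibition. Size under these conditions: about 65,000 compounds, about 64 of them at 50% or above in at least one test.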
LiHisRS: 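Histidine-tRNA ligase, Leishmania infantum (UniProt A4I591). Enzyme assay of histidyl-tRNA synthetase; the read-out is not stated. Concentration: 30 µM. Higher reads as stronger inhibition (inferred: compounds with an IC50 in retests scored well above the rest). The assay is labelled LdHisRS but filed under L. infantum. Of about 69,000 compounds tested this way, about 410 (0.6%) reached 50% or more in at least one test.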
TcHisRS: 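Enzyme assay of histidyl-tRNA synthetase; the read-out is not stated. Target: Histidine-tRNA ligase, Trypanosoma cruzi CL Brener (UniProt Q4DA54). Concentration: 30 µM. Direction is inferred from retests: higher values go with stronger inhibition. Of about 69,000 compounds tested this way, about 31 (0.045%) reached 50% or more in at least one test.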

Results are given as percent effect. The controls that fix the scale are not given in the record; negative values are as filed. This is an unselected part of the compounds tested. Two or more numbers in one place are separate tests of the same structure; such repeats can differ widely. A dash means the value is not listed here; it may have been measured.

structure,Pks13 thioesterase,Toxoplasma,CoaBC,MtTrpRS,LiHisRS,TcHisRS
CCc1nnc2n1CCN(C(=O)c1ccc(-c3ccco3)[nH]c1=O)C2,12.01,-2.688,-0.2625,-1.834,20.34,4
CN(Cc1ccc(O)cc1)C(=O)NC1CCCN(c2ncccn2)C1 (stereo not shown),-12.33,-19.11,6.21,-4.457,21.43,8.284
Cc1cc(C)n(CC2CCCCN2CC(=O)Nc2nnc(C)s2)n1 (stereo not shown),-6.384,-1.041,-5.618,-0.1564,13.22,6.122
Cn1cccc1C(=O)NCc1cn2c(n1)CN(C(=O)c1ccsc1)CC2,-4.054,4.705,2.101,-7.961,13,8.163
COc1cccc(N2CCC(CNC(=O)NCc3ccco3)C2)c1 (stereo not shown),-4.499,-11.75,-2.657,0.7273,13.13,12.26
CC(NC(=O)CCn1cccn1)c1cn(-c2ccccc2)nn1 (stereo not shown),-2.149,1.68,7.243,-3.614,7.965,2.212
Cc1[nH]ncc1CCCNC(=O)N1CCOC(C)C1 (stereo not shown),-30.72,21.41,0.2141,-0.5236,12.07,-5.759
Cc1nc(C2(O)CCCNCC2)sc1CCOc1ccccc1.Cl (stereo not shown),-,-8.75,-,-,-,-
COc1ccc(-c2nc(CCNc3nnc(C)c(C)c3C#N)co2)cc1,-12.93,-2.774,26.13 & -5.291,6.885,57.14,1.02
CCOCC(O)CN1CCN(C(=O)c2ccc(OC)cc2F)CC1 (stereo not shown),-8.006,3.494,1.687,-1.199,16.44,0.7634
c1ccc(-c2nc3c(c(NCCc4c[nH]cn4)n2)CCNC3)cc1,-44.8,12.63,-46.26,0.4248,19.74,7.609
Cc1ccc(CN2CC[C@H]3CO[C@H](CN(C)C)[C@H]3C2)o1,-4.68,-,3.448,-5.805,20,4.124
CN(Cc1ccco1)Cc1ccccc1CNC(=O)c1cnccn1,-28.15,-2.149,6.41,-4.145,23.29,5.911
O=C(CNC1CCc2ncnn2C1)N(C1=CCCCC1)C1CC1 (stereo not shown),-14.31,-9.929,2.444,-1.685,14.71,5.82
O=C(O)C(F)(F)F.O=C(O)C(F)(F)F.[H][C@@]12COC[C@]1([H])[C@@H](OCc1csc(C)n1)CN2Cc1cccs1,-,-31.95,-,-,-,-
Cc1cc(CN2CCN(c3ccnc(-c4ccccc4)n3)CC2)no1,2.529,-6.247,-2.892,-0.4531,14.29,6.931
Cc1nc(N(C)C)ncc1C(=O)N[C@@H]1CCc2ccccc21,-1.538,9.58,10.17,1.952,14.75,3.863
COCC1CCN(C(=O)c2cc(O)nc(CC(C)C)c2)CC1,15.41,-3.506,0.6143,-0.4105,6.202,-1.19
O=C1N(CC2CC2)C(c2c[nH]nc2-c2cccnc2)NC12CCCC2 (stereo not shown),-16.06,-4.984,5.159,3.685,4.464,1.724
CC(N)C(=O)N1CCC(Oc2cccc(C(F)(F)F)c2)CC1 (stereo not shown),-22.07,5.509,0.1229,1.067,17.05,13.1
CCOC(=O)C1CCN(C(=O)c2cc(OCC)c3ccoc3c2)CC1,-14.22,-20.69,-0.7653,0.6365,20.99,4.018
Cn1nc2c(cc1=O)CN(Cc1nc(-c3ccoc3)no1)CC2,-29.8,4.438,-3.719,-0.677,16,4.891
Cc1nn(C)c(N(C)C)c1CNC1CCc2c(F)cccc21.Cl (stereo not shown),-,-15.1,-,-,-,-
CN(C)Cc1ccnc(C2CCCN2Cc2cc3ccccc3s2)n1 (stereo not shown),-,10.87,1.961,-,7.292,26.6
Cc1ncsc1-c1nc(CC2CCN(C)CC2)nn1Cc1ccccc1,-9.448,14.43,-19.22,3.694,-5.714,4.082
O=C(NCC(O)c1ccsc1)c1sccc1OC(F)F (stereo not shown),-18.34,26.38,21.38 & 2.116,-1.175,2.857,-1.02
Cc1nc2c(cc1C(=O)O)CCN(CC1CC1)CC2,-19.76,-,4.575,-2.581,12.28,5.464
COCC1CCCN(C(=O)c2cc(Cn3ccc4ccccc43)[nH]n2)C1 (stereo not shown),-34.98,13.23,-1.818,-1.74,36.79,12.55
Cc1c(CN2CCCC2(C)C(=O)NC2CCCC2)cnn1C (stereo not shown),-1.553,10.59,6.527,-1.171,1.418,-1.128
Cc1nc(-c2ccc(S(=O)(=O)N3CCCCC3)cc2)co1,-5.482,4.717,2.3,0.6221,16.3,7.921
NCC(CO)Cc1ccc(OC(F)(F)F)cc1 (stereo not shown),-11.59,1.836,3.694,-5.624,-1.036,7.182
Cn1cc(CN2Cc3cn(C)nc3C(COCC3CC3)C2)cn1 (stereo not shown),-9.574,-12.88,3.299,-5.679,2.941,-1.97
CCNC(=O)[C@@H]1C[C@@H](n2cc(CC3CCCCC3)nn2)CN1,-15.58,3.144,3.856,-0.4042,2.083,5.587
O=C(CN1CCOc2ccccc2C1)N1Cc2cnn(CCO)c2C1,-26.36,2.087,0,-5.217,12,4.046
COc1ccccc1-c1cc(C(=O)Nc2nc[nH]n2)[nH]n1,-3.506,8.057,2.663,-1.328,6.522,-1
CC(C)(C)CC(=O)NCC(=O)NS(=O)(=O)c1cccnc1,10.23,5.723,0.9724,-3.561,4.762,4.04
CCOCCC(=O)N1CCc2cccc(S(=O)(=O)N3CCOCC3)c2C1,59.87,-5.473,-1.11,0,11.29,2.632
CC(C#N)CN(C)C(=O)c1cn(-c2ccc(Br)cc2)cn1 (stereo not shown),-12.1,-1.438,7.57,1.624,16.44,4.211
Cl.NCCc1cn(Cc2ccccn2)c2ccccc12,-,22.77,-,-,-,-
Cc1nnsc1CNC(=O)c1ccc2c(c1)nc(N1CCOCC1)n2C,-9.866,-23.43,2.296,3.437,18.52,2.232
Cc1csc2nc3n(c(=O)c12)CCN(Cc1c[nH]cn1)CC3,5.325,-,-4.136,-5.971,15.79,2.985
COc1cccc([C@@H]2CCN(Cc3c[nH]c(C)n3)C[C@H]2O)c1,-6.174,-13.92,-1.533,-3.585,20.78,-7.273
CC(NC(=O)NCc1ccc(Cl)cc1)c1ccccn1 (stereo not shown),-15.56,8.83,4.439,-1.657,21.62,3.383
COc1cccc(CC(C)NCC(=O)Nc2ccccc2C)c1 (stereo not shown),-,-0.5823,5.147,-3.333,15.56,5.952
Cc1nc(C(C)N2Cc3ncccc3C2=O)cs1 (stereo not shown),-21.24,9.433,5.196,0.8961,24.05,3.017
COc1ncccc1C1CC(=O)Nc2cc(NS(C)(=O)=O)ccc21 (stereo not shown),-25.31,-7.66,2.408,1.135,16.46,3.017
COc1ccnc(N2CCC3(CCCN(CC4CC4)C3=O)C2)n1 (stereo not shown),-31.64,2.663,-3.306,1.644,8,11.41
O=C(CCn1cncn1)N1CCCC1c1noc(C2CC2)n1 (stereo not shown),-18.47,-0.6632,1.912,-7.687,13.46,5.143
CCc1ncncc1C(=O)NCCNC(=O)c1ccc(C)c(F)c1,-23,11.17,8.894,1.687,21.88,2.128
Cc1nc(CN2CCC(C(=O)O)(n3ccc(-c4ccco4)n3)CC2)co1,-6.212,2.215,-4.516,0.7401,3.81,0.8264
COc1ccnc(N2CCN(C(=O)c3csc(C(C)C)n3)CC2)n1,-27.8,1.967,6.608,-1.341,16.98,-3.39
Cc1cc(C)nc(N(C)CCn2ccnc2C)n1,-7.565,-19.14,9.223,6.695,12.86,8.046

5 of the entries, repeated:

COc1cccc(N2CCC(CNC(=O)NCc3ccco3)C2)c1 (stereo not shown) read Pks13 thioesterase: -4.499%; Toxoplasma: -11.75%; CoaBC: -2.657%; MtTrpRS: 0.7273%; LiHisRS: 13.13%; TcHisRS: 12.26%.
Cc1nc(-c2ccc(S(=O)(=O)N3CCCCC3)cc2)co1 read Pks13 thioesterase: -5.482%; Toxoplasma: 4.717%; CoaBC: 2.3%; MtTrpRS: 0.6221%; LiHisRS: 16.3%; TcHisRS: 7.921%.
CC(NC(=O)CCn1cccn1)c1cn(-c2ccccc2)nn1 (stereo not shown) read Pks13 thioesterase: -2.149%; Toxoplasma: 1.68%; CoaBC: 7.243%; MtTrpRS: -3.614%; LiHisRS: 7.965%; TcHisRS: 2.212%.
Cc1nc(CN2CCC(C(=O)O)(n3ccc(-c4ccco4)n3)CC2)co1 read Pks13 thioesterase: -6.212%; Toxoplasma: 2.215%; CoaBC: -4.516%; MtTrpRS: 0.7401%; LiHisRS: 3.81%; TcHisRS: 0.8264%.
CCOCCC(=O)N1CCc2cccc(S(=O)(=O)N3CCOCC3)c2C1 read Pks13 thioesterase: 59.87%; Toxoplasma: -5.473%; CoaBC: -1.11%; MtTrpRS: 0%; LiHisRS: 11.29%; TcHisRS: 2.632%.

Data taken from ChEMBL document CHEMBL3988442, “University of Dundee, Small-Polar-MMV Screening Library” (2021).